# Experimental data published in the supplement of paper PMC7666118.
# Protein sequences, listed by entry. Tags and fused reporters are not part of them.
# UniProt P54709, whole entry: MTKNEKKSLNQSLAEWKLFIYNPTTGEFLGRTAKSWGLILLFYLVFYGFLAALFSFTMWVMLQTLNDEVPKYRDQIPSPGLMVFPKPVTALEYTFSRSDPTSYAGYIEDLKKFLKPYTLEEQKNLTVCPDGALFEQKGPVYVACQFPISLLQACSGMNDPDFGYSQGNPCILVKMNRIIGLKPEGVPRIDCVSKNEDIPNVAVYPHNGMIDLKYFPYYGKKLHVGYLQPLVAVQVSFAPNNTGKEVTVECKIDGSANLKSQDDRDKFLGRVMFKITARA
# This is one part of the list.
# Target: ATP1B3 (UniProt P54709)
# Assay: dose-dependent thermal stabilisation call (2D-TPP, DLPTP, 10% FDR) (binary (1 = stabilised)); higher = stabilised by the compound
# Details: system: HL-60 intact cells; concentration range 0.04-10 µM
smiles,measurement,value
COc1ccc(Cn2ccc3ccc(C(=O)NO)cc32)cc1,dose-dependent thermal stabilisation call,inactive: 0
